According to publication PMC5607218:
Results are given in words; binding and its absence hold for the method and conditions named. Binding calls can cover weak binding; strength is not graded here.

Target: periplasmic extracellular loop (ECL) of FtsX (C. crescentus)
Experiment: two-hybrid; bacterial two-hybrid: T18 and T25 plasmids co-transformed into E. coli BTH101; cultures spotted on plates with ampicillin, kanamycin, X-gal and 0.5 mM IPTG, 1-2 days at 30°C; blue colonies are positive; every interaction tested in triplicate

coiled coil (CC) domain of LdpF (LytM domain protein F, CCNA_03547) (from UniProt A0A0H3CDN2) (domain or fragment)
binding: binds
